# PubChem BioAssay AID588499 (NMMLSC, 2011)
# Hit rate of the full screen: of about 360,000 compounds, about 610 (0.17%) were called active. Inconclusive results, whose numbers are uncertain, are shown with a selection of clear calls. Rule as the data show it: active = inhibition above about 30%; inconclusive = no clear call, values can overlap the other calls; inactive = below that.
# System: Botulinum neurotoxin type A light chain protease (Clostridium botulinum A str. ATCC 3502)
# Test: blockers of BoNT/A LC substrate cleavage – biochemical, flow cytometry, MLPCN library, primary screen (AID 588499); also: plate controls were buffer without enzyme for full effect and enzyme alone for no effect
# Conditions: multiplex microsphere protease substrate cleavage, at 10 µM, stronger effect = higher value
row,Compound,inhibition
1,OC1COC(c2ccccc2)OC1C1OC(c2ccccc2)OCC1O (stereo unspecified),inactive: -0.3%
2,CCOc1ccc(N=Cc2c(O)n(-c3cccc(C)n3)c(=O)c3ccccc23)cc1,inconclusive: 3.3%
3,COc1ccc(OC)c(CCNC(=O)CS(=O)(=O)Cc2nc(-c3ccccc3C)oc2C)c1,inconclusive: -2.5%
4,COC(=O)NC1CSCC1OC(=O)c1ccc(Br)cc1 (stereo unspecified),inconclusive: 0.3%
5,O=C(COc1ccc(Cl)cc1)N1CCN(S(=O)(=O)c2cc(F)ccc2F)CC1,inactive: 0.4%
6,CCCn1c(=N)c(C(=O)NCC2CCCO2)cc2c(=O)n3cccc(C)c3nc21 (stereo unspecified),inactive: 0.6%
7,O=c1[nH]c(CN2CCN(S(=O)(=O)/C=C/c3ccccc3)CC2)nc2ccccc12,inactive: 0.8%
8,Cc1cc2cc(CNS(=O)(=O)c3ccc4ccccc4c3)ccc2n1C,active: 47.2%
9,Cc1cc(NCc2ccccc2)nc(-c2ccccc2O)n1,inconclusive: 0.2%
10,CC1(C)CC2CC(C)(CN2S(=O)(=O)c2cccc(C(=O)OCC(=O)NC(N)=O)c2)C1 (stereo unspecified),inconclusive: 25%
11,CCN=c1scc(-c2ccco2)n1/N=C/c1ccc(OC)c(O)c1,inconclusive: -3%
12,CCN(CC(=O)NCc1ccco1)S(=O)(=O)c1ccc(OC)cc1,inconclusive: -1.1%
13,CCOc1ccc(/C=C/C2=Cc3c(sc(NC(=O)CSc4n[nH]c(N)n4)c3C#N)C(C)(C)C2)cc1,active: 85.4%
14,O=C1Nc2ccccc2C12OCC1(CO2)COC2(OC1)C(=O)Nc1ccccc12 (stereo unspecified),inconclusive: -10.5%
15,COc1ccc([C@H]2CC(=O)c3c(O)cc(O)cc3O2)cc1O,inconclusive: 2.2%
16,Cc1cccc(C)c1-n1nnnc1C1c2ccccc2C(=O)N1CCc1ccccc1F (stereo unspecified),inactive: -0.2%
17,CCOC(=O)c1c(CN2CCOCC2)n(C)c2cc(Br)c(O)c(CN(C)C)c12,inconclusive: 0.6%
18,COCc1cc(=O)[nH]c(SCC(=O)Nc2ccccc2)n1,inconclusive: -0.2%
19,Cc1cc(Cl)ccc1OCC(=O)NNC(=O)C1CCCO1 (stereo unspecified),inactive: -0.9%
20,C=CCOC(=O)COc1ccc2c(C)c(C)c(=O)oc2c1,inconclusive: -5.8%
21,Cc1cc(C)c2cc(C#N)c(NCCCNC(=O)CCC(=O)O)nc2c1,inconclusive: 0.1%
22,COc1ccc(CCN2CCCC(CN(C)Cc3cc(OC)ccc3OC)C2)cc1 (stereo unspecified),inconclusive: -5.3%
23,Cc1cc2c(=O)n(C)c(SCC(=O)NC3CCCC3)nc2s1,inconclusive: 0.4%

row,Compound,inhibition
1,Cc1ccc(C(=O)C[n+]2cccc3ccccc32)cc1,inactive: 10.9%
2,O=[N+]([O-])/C=C/c1cn(Cc2ccc(F)cc2)c2ccccc12,active: 37.5%
3,CC1CCC(NC(=O)C2c3ccccc3C(=O)N2CCCN2CCOCC2)CC1 (stereo unspecified),inconclusive: -2.6%
4,O=S(=O)(Nc1ccc(-c2nc3ccccc3o2)cc1)c1ccccc1,inconclusive: -2.6%
5,O=C1Nc2ccccc2N=C(c2ccccc2)C1N1CCOCC1 (stereo unspecified),inconclusive: 0.5%
6,CCOC(=O)N1CCN(S(=O)(=O)CCNC(=O)c2ccc(OC)cc2)CC1,inconclusive: -2.5%
7,Cc1ccc(O)c(NC(=O)c2ccc3c(c2)C(=O)N(CC(C)C)C3=O)c1,inconclusive: -5.6%
8,O=C(COc1ccccc1F)N1N=C(c2cccs2)CC1c1ccco1 (stereo unspecified),inconclusive: -0.6%
9,CCCCNC(=O)NNC(=O)c1cc(C)on1,inconclusive: -26.4%
10,COc1ccc(NC(=O)CSc2nnc(-c3ccco3)n2C)cc1,inactive: -0.1%
11,Nc1nnc(SCc2ccc(F)cc2)s1,inconclusive: 0.1%
12,COc1ccc(CCNC(=O)C(=O)NCc2ccc(C(C)C)cc2)cc1OC,inconclusive: -3.6%
13,O=C1c2cccc3cccc(c23)C(=O)N1Cc1ccccc1,inactive: -0.7%
14,CCC(Sc1ncccc1C(=O)OC(C)C)C(=O)N1CCOCC1 (stereo unspecified),inconclusive: -1.1%
15,CC(=O)N1CCN(C(=O)OC2CC3CC2[C@H]2CCCCN2C3=O)CC1 (stereo partly specified),inactive: 0.2%
16,COCCNC(=O)c1cc2cc(Br)cc(OC)c2oc1=O,inconclusive: -3.2%
17,c1ccc(OCCn2cnc3ccccc32)cc1,inconclusive: 22.4%
18,Cc1nnc(SCC(=O)Nc2nc3ccccc3s2)n(N)c1=O,inactive: 1%
19,COc1ccc(C2c3c(ccc4ccccc34)Oc3ncn4nc(CO/N=C/c5ccccc5)nc4c32)cc1 (stereo unspecified),inconclusive: -4.2%
20,COc1ccc(Cc2c(-c3ccccc3)nc3ccc(Br)cn23)c(C)c1,active: 40%
21,CCCCC(=O)Nc1sc2c(c1C(=O)OCC)CCC(C=O)=C2Cl,inconclusive: 10.9%
22,C=CCOc1c(Br)cc(CNc2ccc(NC(=O)C(C)C)c(OC)c2)cc1OC,inconclusive: 11.3%
23,Cn1nc(C(C)(C)C)c([N+](=O)[O-])c1C(=O)Nc1cccc2ccccc12,inactive: 0%

row,Compound,inhibition
1,CCCOc1ccc(C(=O)N/N=C/c2ccc(-c3ccc(S(=O)(=O)Nc4ncccn4)cc3)o2)cc1,inconclusive: -8.9%
2,c1cc(N2CCCC2)ccc1C(c1nnnn1C1CCCCC1)N1CCOCC1 (stereo unspecified),inconclusive: 4.9%
3,COc1ccc(N2C(=O)CC(Nc3ccc(C)cc3)C2=O)cc1 (stereo unspecified),inconclusive: 3.5%
4,CC(OC(=O)c1cc(=O)c2ccccc2o1)C(=O)c1ccccc1 (stereo unspecified),inactive: -0.3%
5,O=C(NCCc1c[nH]c2ccccc12)/C(=C\c1cccnc1)NC(=O)c1ccccc1Br,inconclusive: 7.5%
6,O=C(CCCCC(=O)N1CCOCCOCCOCC1)OCc1ccccc1,inconclusive: 3.9%
7,CC(=O)Nc1ccc(NC(=O)[C@@H](NC(=O)c2ccccc2F)C(C)C)cc1,inactive: -1.2%
8,Cc1ccc(C(=O)N(CCC2=CCCCC2)c2c(N)n(Cc3ccccc3)c(=O)[nH]c2=O)o1,active: 31%
9,O=S(=O)(NC12CC3CC(CC(C3)C1)C2)c1ccc(F)cc1,inconclusive: 1.7%
10,O=C(Oc1cccnc1)c1ccco1,inactive: -0.2%
11,Cc1nc(-c2cccc(NC(=O)c3cccs3)c2)cs1,inactive: -1.7%
12,C=CCn1c(SCc2nc3ccccc3[nH]2)nnc1-c1ccccn1,inconclusive: 4.7%
13,O=S(=O)(Cc1noc(-c2ccccc2Cl)n1)c1ccccn1,inconclusive: -45.1%
14,O=c1ccc2cc3c4c(c2o1)CCCN4CCC3,inconclusive: 2.7%
15,CCCCSc1nnc(-c2cc(Br)ccc2N)c(=O)[nH]1,inconclusive: 1.8%
16,COc1cccc(-c2nnc3sc(-c4ccccc4)nn23)c1,inconclusive: -0.8%
17,CN(C)C(=O)CSc1nnc([C@H](Cc2ccccc2)NC(=O)OC(C)(C)C)o1,inconclusive: 13.6%
18,CCOc1cc(C(=S)N2CCCCC2)ccc1OCC(=O)NCc1ccccc1,inconclusive: 4.9%
19,Cc1cc(C)cc(C(O)c2ncc(-c3ccccc3C)[nH]2)c1 (stereo unspecified),inactive: -0.3%
20,S=C(c1c[nH]c2ccccc12)N1CCCC1,inactive: -0.1%
21,O=C(Nc1nccs1)c1ccc(Cl)cc1[N+](=O)[O-],inconclusive: -3.3%
22,CCOc1ccc(Nc2nc(NCCN3CCOCC3)nc(OC)n2)cc1,inconclusive: -0.8%
23,COc1ccc(S(=O)(=O)N(CC(=O)NCc2ccco2)c2ccccc2)cc1,inconclusive: 2.7%

# Some of the entries above, set out differently:
row	Compound	inhibition
5	O=C(COc1ccc(Cl)cc1)N1CCN(S(=O)(=O)c2cc(F)ccc2F)CC1	inactive: 0.4%
11	CCN=c1scc(-c2ccco2)n1/N=C/c1ccc(OC)c(O)c1	inconclusive: -3%
14	O=C1Nc2ccccc2C12OCC1(CO2)COC2(OC1)C(=O)Nc1ccccc12 (stereo unspecified)	inconclusive: -10.5%
20	C=CCOC(=O)COc1ccc2c(C)c(C)c(=O)oc2c1	inconclusive: -5.8%
2	O=[N+]([O-])/C=C/c1cn(Cc2ccc(F)cc2)c2ccccc12	active: 37.5%
3	CC1CCC(NC(=O)C2c3ccccc3C(=O)N2CCCN2CCOCC2)CC1 (stereo unspecified)	inconclusive: -2.6%
10	COc1ccc(NC(=O)CSc2nnc(-c3ccco3)n2C)cc1	inactive: -0.1%
14	CCC(Sc1ncccc1C(=O)OC(C)C)C(=O)N1CCOCC1 (stereo unspecified)	inconclusive: -1.1%
16	COCCNC(=O)c1cc2cc(Br)cc(OC)c2oc1=O	inconclusive: -3.2%
17	c1ccc(OCCn2cnc3ccccc32)cc1	inconclusive: 22.4%
21	CCCCC(=O)Nc1sc2c(c1C(=O)OCC)CCC(C=O)=C2Cl	inconclusive: 10.9%
22	C=CCOc1c(Br)cc(CNc2ccc(NC(=O)C(C)C)c(OC)c2)cc1OC	inconclusive: 11.3%
1	CCCOc1ccc(C(=O)N/N=C/c2ccc(-c3ccc(S(=O)(=O)Nc4ncccn4)cc3)o2)cc1	inconclusive: -8.9%
8	Cc1ccc(C(=O)N(CCC2=CCCCC2)c2c(N)n(Cc3ccccc3)c(=O)[nH]c2=O)o1	active: 31%
10	O=C(Oc1cccnc1)c1ccco1	inactive: -0.2%
22	CCOc1ccc(Nc2nc(NCCN3CCOCC3)nc(OC)n2)cc1	inconclusive: -0.8%

# The listing continues.

row,Compound,inhibition
1,NC(=O)c1ccccc1NC(=O)c1ccoc1,inactive: 0.8%
2,CCOC(=O)c1ccccc1NC(=O)CN(c1ccccc1C)S(C)(=O)=O,inconclusive: -43%
3,Nc1ccc(C#Cc2ccccc2)cc1,inconclusive: -0.1%
4,Cc1ccc2c(c1)CCCN2CC(=O)Nc1cccc(S(=O)(=O)N2CCCC2)c1,inconclusive: 13.8%
5,COc1ccc(NC(C)=O)cc1NC(=O)CSc1nnc(-c2ccncc2)n1C,inconclusive: 2.1%
6,CCCOc1ccc(CSc2nc3ccccc3[nH]2)cc1,inconclusive: 6.4%
7,COc1cccc(NC(=O)CN(C)CC(=O)Nc2ccc(C)c([N+](=O)[O-])c2)c1,inactive: 2.3%
8,COCC(C)n1c(-c2ccc3c(c2)NC(=O)CO3)csc1=Nc1ccc(OC(F)F)cc1 (stereo unspecified),inconclusive: -4.2%
9,Cc1nc(Oc2ccc(Cl)cc2)c2oc3ccccc3c2n1,inconclusive: -0.6%
10,CCOC(=O)C1CCN(C(=O)c2ccc3c(c2)NC(=O)/C(=C/c2ccccc2)S3)CC1,inactive: 2.5%
11,CCCc1nc2c(c(=O)c3ccccc3n2C)c(=O)n1-c1cc(C)cc(C)c1,inconclusive: -41.5%
12,CC(=O)Nc1ccc(S(=O)(=O)NCc2ccc3[nH]c(C)cc3c2)cc1,active: 52.6%
13,C=CCOc1ccccc1C1NC(=O)NC(C)=C1C(=O)NCc1ccccc1 (stereo unspecified),inconclusive: -5%
14,COC(=O)c1c(C)oc(C)c1S(=O)(=O)NCc1ccc(Cl)cc1Cl,inconclusive: -9.2%
15,COc1ccc(OC)c(NC(=O)C2CCN(S(=O)(=O)c3cccs3)CC2)c1,inconclusive: 4.9%
16,OC(Cn1c2ccccc2c2ccccc21)C[n+]1cccc2ccccc21 (stereo unspecified),inconclusive: -17.7%
17,CN(C)C(=O)CCC(=O)N1CCCC(C(=O)c2ccc(C(F)(F)F)cc2)C1 (stereo unspecified),inactive: -2.1%
18,O=C(O)c1ccc([N+](=O)[O-])c2c1C(=O)c1ccccc1C2=O,inconclusive: -86.1%
19,COC(=O)C1=C(C)NC(C)=C(C(=O)OC)C1c1ccc(N(C)C)cc1,inconclusive: -1.5%
20,Cc1sc2ncnc(N3CCC(C(=O)Nc4nnc(SCc5ccccc5F)s4)CC3)c2c1C,inconclusive: 4.7%
21,CCc1cc2c(SCC(=O)O)ncnc2s1,inconclusive: -13.6%
22,CCN1CCN(CCC(=O)Nc2cc(C)ccc2C)CC1,inconclusive: -2.4%
